Two molecules from publication PMC10107498 can be followed below.

By UniProt entry, the sequences of proteins in these tests, tags left out. Where a name states a change or a piece, a line headed by the entry shows the natural chain unless it says otherwise.
UniProt Q9FNY0: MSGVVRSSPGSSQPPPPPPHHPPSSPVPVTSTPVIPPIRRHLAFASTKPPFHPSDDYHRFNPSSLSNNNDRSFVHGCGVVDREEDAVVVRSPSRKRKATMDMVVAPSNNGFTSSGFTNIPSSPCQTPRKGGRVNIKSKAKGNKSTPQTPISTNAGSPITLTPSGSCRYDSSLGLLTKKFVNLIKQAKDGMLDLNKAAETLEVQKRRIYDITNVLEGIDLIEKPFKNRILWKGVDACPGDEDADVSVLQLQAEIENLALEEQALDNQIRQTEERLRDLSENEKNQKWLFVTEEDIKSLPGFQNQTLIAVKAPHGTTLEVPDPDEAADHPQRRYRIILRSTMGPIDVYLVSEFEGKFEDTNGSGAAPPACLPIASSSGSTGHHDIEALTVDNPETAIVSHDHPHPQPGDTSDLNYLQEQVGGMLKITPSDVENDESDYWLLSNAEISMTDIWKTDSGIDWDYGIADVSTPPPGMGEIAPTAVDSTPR

For assay [1], the target named is T1, SNF1-related protein kinase 1 (SnRK1.1), Gal4 DNA-binding domain fusion in pGBKT7 (Arabidopsis thaliana) (UniProt Q38997).
T1 sequence: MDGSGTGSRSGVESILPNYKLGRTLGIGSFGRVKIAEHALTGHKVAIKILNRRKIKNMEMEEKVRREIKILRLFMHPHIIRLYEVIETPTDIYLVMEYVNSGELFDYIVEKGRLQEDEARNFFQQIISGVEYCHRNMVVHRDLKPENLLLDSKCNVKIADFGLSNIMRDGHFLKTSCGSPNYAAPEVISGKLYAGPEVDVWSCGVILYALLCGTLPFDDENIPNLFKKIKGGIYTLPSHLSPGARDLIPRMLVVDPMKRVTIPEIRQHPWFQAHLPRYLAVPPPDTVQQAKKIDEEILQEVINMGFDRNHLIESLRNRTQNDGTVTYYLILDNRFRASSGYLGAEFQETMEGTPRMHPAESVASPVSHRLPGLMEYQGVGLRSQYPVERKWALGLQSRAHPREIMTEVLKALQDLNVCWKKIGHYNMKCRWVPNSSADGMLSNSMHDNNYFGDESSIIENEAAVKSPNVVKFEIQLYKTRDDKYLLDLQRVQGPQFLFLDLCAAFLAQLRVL
The assay can be described thus: two-hybrid; Clontech system, yeast AH109; SnRK1.1 constructs in pGBKT7, E2F constructs in pGADT7; growth on medium lacking His, Leu and Trp with 0.5 mM 3-amino-1,2,4-triazole.

Assay [2] deals with E2Fa-GFP expressed in Arabidopsis protoplasts (Arabidopsis thaliana) (UniProt Q9FNY0). The assay can be described thus: co-IP; Arabidopsis mesophyll protoplasts transfected with E2Fa-GFP with or without SnRK1.1-HA, 11 h with 5 uM MG132; lysate on ChromoTek beads (IP with anti-GFP), 6 h at 4 °C; immunoblot.

These are yes or no findings as the source states them, for the method shown. For some assays here: In cells and extracts the contact can be indirect. Some entries that bind do so weakly or less than the wild type. Where a sequence is shown, tags or fusion partners need not be part of it.

“E2Fa^282–352 fragment including the marked box (MB) domain, Gal4 activation domain fusion in pGADT7 (from UniProt Q9FNY0 282-352) (domain or fragment)”: the binding result in assay [1] is “binds”.

B1: HA-tagged SnRK1.1 (SnRK1.1-HA) expressed in Arabidopsis protoplasts (enzyme, UniProt Q38997 1-512)
chain: MDGSGTGSRSGVESILPNYKLGRTLGIGSFGRVKIAEHALTGHKVAIKILNRRKIKNMEMEEKVRREIKILRLFMHPHIIRLYEVIETPTDIYLVMEYVNSGELFDYIVEKGRLQEDEARNFFQQIISGVEYCHRNMVVHRDLKPENLLLDSKCNVKIADFGLSNIMRDGHFLKTSCGSPNYAAPEVISGKLYAGPEVDVWSCGVILYALLCGTLPFDDENIPNLFKKIKGGIYTLPSHLSPGARDLIPRMLVVDPMKRVTIPEIRQHPWFQAHLPRYLAVPPPDTVQQAKKIDEEILQEVINMGFDRNHLIESLRNRTQNDGTVTYYLILDNRFRASSGYLGAEFQETMEGTPRMHPAESVASPVSHRLPGLMEYQGVGLRSQYPVERKWALGLQSRAHPREIMTEVLKALQDLNVCWKKIGHYNMKCRWVPNSSADGMLSNSMHDNNYFGDESSIIENEAAVKSPNVVKFEIQLYKTRDDKYLLDLQRVQGPQFLFLDLCAAFLAQLRVL
Consider B1, for which, in assay [2], the binding entry is “binds”.
